## Primary screen of a compound library

The filed quantity is “Percent Effect” (%). The controls that fix the scale are not given in the record; negative values are as filed. The compounds are a random part of those screened.

Mtb growth Cornell: 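Whole-cell assay for inhibitors of Mycobacterium tuberculosis growth, labelled Cornell in the record; the read-out is not stated. The concentration is filed as 10 mM, unlikely as a test dose, so the dose is not known. Higher means stronger inhibition (inferred from two other growth screens of the library). About 53,000 compounds were tested under these conditions; 1.7% (about 900) showed 50% or more at least once.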
Mtb heat-shock: 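Assay on Mycobacterium tuberculosis, filed only as a heat shock assay from Cornell; the read-out is not stated. The concentration is filed as 10 mM, unlikely as a test dose, so the dose is not known. Direction is inferred from retests: higher values go with stronger inhibition. Of about 69,000 compounds tested this way, about 930 (1.4%) reached 50% or more in at least one test.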

{"structure": "CNC(=O)CNCC1(O)CCCN(Cc2ccc(F)c(F)c2)C1=O", "stereo": "centres undefined", "Mtb growth Cornell": -12.88, "Mtb heat-shock": -14.84}
{"structure": "COc1nn(C)c2c1CCCN(S(=O)(=O)c1cccs1)C2", "Mtb growth Cornell": -36.42, "Mtb heat-shock": -14.9}
{"structure": "Cc1cnn(CC2CN(CC(=O)N3CCc4ccccc43)CCO2)c1", "stereo": "centres undefined", "Mtb heat-shock": 1.01}
{"structure": "CC(C)C(=O)N(C)CC(=O)Nc1ccc(Br)cn1", "Mtb growth Cornell": 9.86, "Mtb heat-shock": -17.84}
{"structure": "COc1ccc(-c2ccc(C(=O)NCCCC(N)=O)c(F)c2)c(F)c1", "Mtb growth Cornell": 28.49, "Mtb heat-shock": 1.364}
{"structure": "C/C(=C\\c1ccco1)CN(C)C(C)c1ccccn1", "stereo": "centres undefined", "Mtb heat-shock": -33.67}
{"structure": "Cn1cc(Br)c(C(=O)NCCCn2cc(Br)cn2)n1", "Mtb growth Cornell": 18.58, "Mtb heat-shock": -1.419}
{"structure": "COCCN1CCCN(C(=O)NC(C)Cn2ccnc2)CC1", "stereo": "centres undefined", "Mtb growth Cornell": 18.52, "Mtb heat-shock": -2.048}
{"structure": "COc1cc2ncn(Cc3ncc[nH]3)c(=O)c2cc1OC", "Mtb growth Cornell": 6.69, "Mtb heat-shock": -2.53}
{"structure": "CCOc1cc(C)nc(N2CCN(C(=O)CN(C)C3CC3)CC2)n1", "Mtb heat-shock": -13.2}
{"structure": "COc1ncccc1C(=O)N1CC(c2nc(-c3cccs3)no2)C1", "Mtb growth Cornell": -11.13, "Mtb heat-shock": 10.51}
{"structure": "Cc1nc(C)n(CC2CN(c3ncccn3)Cc3nccn3C2)n1", "stereo": "centres undefined", "Mtb growth Cornell": 5.851, "Mtb heat-shock": 2.21}
{"structure": "COc1cccc2c3c(c(=O)[nH]c12)CCC(C)(C)O3", "Mtb growth Cornell": 14.12, "Mtb heat-shock": -0.4905}
{"structure": "Cc1nccn1-c1ccc(=O)n(CCNC(=O)c2cccs2)n1", "Mtb growth Cornell": 4.423, "Mtb heat-shock": 4.223}
{"structure": "CC(C)N1CCCC(Cc2cncc(Br)c2)CC1", "stereo": "centres undefined", "Mtb growth Cornell": -2.941, "Mtb heat-shock": -22.95}
{"structure": "CN(C)c1cc(C(=O)N2CCN(c3cnccn3)CC2)ccn1", "Mtb growth Cornell": -3.529, "Mtb heat-shock": -18.18}
{"structure": "c1ccc(Cc2noc(-c3ccc(NCC4CCCOC4)nc3)n2)cc1", "stereo": "centres undefined", "Mtb growth Cornell": 7.236, "Mtb heat-shock": -6.166}
{"structure": "O=C(Cc1cccc(Cl)c1)N[C@@H]1CCNC[C@H]1O", "Mtb growth Cornell": 2.906, "Mtb heat-shock": -8.967}
{"structure": "Cc1cc2n(n1)CC(CNCCc1cnn(C)c1)CN2", "stereo": "centres undefined", "Mtb heat-shock": -28.21}
{"structure": "CC(C(=O)NCC(C)(C)c1ccc2c(c1)OCCO2)n1cncn1", "stereo": "centres undefined", "Mtb growth Cornell": -4.418, "Mtb heat-shock": 9.169}
{"structure": "CNc1cccc(C2CCCN(C(=O)c3ccn(C)n3)C2)n1", "stereo": "centres undefined", "Mtb growth Cornell": -33.27, "Mtb heat-shock": -27.18}
{"structure": "Cc1ccc(-n2cc(C(=O)NCc3nnc4n3CCCCC4)nn2)cc1", "Mtb heat-shock": 2.691}
{"structure": "CSCC(C)(O)CNC(=O)c1cc(F)ccc1Br", "stereo": "centres undefined", "Mtb growth Cornell": -65.33, "Mtb heat-shock": 9.18}
{"structure": "OCCN(Cc1cccnc1)c1ccc(Br)cn1", "Mtb growth Cornell": 25.68, "Mtb heat-shock": -34.08}
{"structure": "CCOc1ncccc1C(=O)N1CCCC1c1c(C)nn(C)c1OC", "stereo": "centres undefined", "Mtb growth Cornell": 13.47, "Mtb heat-shock": 9.587}
{"structure": "[H][C@@]12CCCO[C@]1([H])[C@H](N(C)C)CN(C(=O)c1c(C)noc1C)C2", "Mtb growth Cornell": 4.027, "Mtb heat-shock": 18.58}
{"structure": "Cc1cc(O)cc(C2CCCN2C(=O)c2ccncc2)n1", "stereo": "centres undefined", "Mtb growth Cornell": 3.916, "Mtb heat-shock": -8.281}
{"structure": "Clc1cccc(C2CCN(c3ncnc4c3CCNC4)C2)c1", "stereo": "centres undefined", "Mtb heat-shock": 29.95}
{"structure": "O=C(NCCOc1ccccc1)C1NCCc2[nH]cnc21", "stereo": "centres undefined", "Mtb heat-shock": -13.28}
{"structure": "COc1cccc2ccn(CC(=O)NCC(C)C)c12", "Mtb growth Cornell": -42.28, "Mtb heat-shock": -7.871}
{"structure": "CCC(CNC(=O)c1cncc(Br)c1)N1CCc2ccccc2C1", "stereo": "centres undefined", "Mtb growth Cornell": 14.7, "Mtb heat-shock": -0.8611}
{"structure": "COCc1nc2cc(NCc3ccncc3)ccc2o1", "Mtb growth Cornell": 39.69, "Mtb heat-shock": 47.84}
{"structure": "CC(C)OCc1noc(C2CCOC2)n1", "stereo": "centres undefined", "Mtb growth Cornell": -1.258, "Mtb heat-shock": 2.333}
{"structure": "COc1ccc(-c2n[nH]cc2CN(C)Cc2nnc(C)o2)c(F)c1", "Mtb heat-shock": 2.86}

Repeated from the top, 3 entries:

CNC(=O)CNCC1(O)CCCN(Cc2ccc(F)c(F)c2)C1=O (centres undefined) read Mtb growth Cornell: -12.88%; Mtb heat-shock: -14.84%.
COc1nn(C)c2c1CCCN(S(=O)(=O)c1cccs1)C2 read Mtb growth Cornell: -36.42%; Mtb heat-shock: -14.9%.
Cc1cnn(CC2CN(CC(=O)N3CCc4ccccc43)CCO2)c1 (centres undefined) read Mtb heat-shock: 1.01%.

From ChEMBL document CHEMBL3988442, “University of Dundee, Small-Polar-MMV Screening Library” (2021).